Source: paper PMC10391610, “Survivin prevents the polycomb repressor complex 2 from methylating histone 3 lysine 27” (iScience, 2023)
These are yes or no findings as the source states them, for the method shown. Some entries that bind do so weakly or less than the wild type.

The chains behind the UniProt entries cited, without tags or fusion partners.
UniProt O15392: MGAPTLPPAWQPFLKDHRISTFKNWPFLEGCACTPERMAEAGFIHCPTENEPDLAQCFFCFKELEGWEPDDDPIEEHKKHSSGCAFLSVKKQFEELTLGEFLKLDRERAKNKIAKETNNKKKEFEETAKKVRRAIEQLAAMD

Tests used:
[1] = biological target: EZH2_(172-211) peptide (human); test: BLI; EZH2 peptide (50 μM) immobilised on AR2G biosensors, quenched with ethanolamine; survivin as analyte at 100, 33.3, 11.1 and 3.7 nM; survivin SEC buffer (50 mM Tris pH 7.5, 150 mM NaCl, 1 mM DTT); 30°C; Bayesian 1:1 model, apparent dissociation constant; both purified
EED peptide … (human) [2] = biological target: T1, EED peptide … (human (by the printed UniProt entry)); test: peptide or protein array; PEPperCHIP microarray of 15-residue peptides (10 residues overlap) on the chip; survivin 1 µg/ml in incubation buffer; detected with 6x His Tag Antibody DyLight680; both purified
T1 sequence (peptide): ADENFYTCAWTYDSN

JARID2 peptide … (human) [3] = biological target: T2, JARID2 peptide … (human (by the printed UniProt entry)); test: as above
T2 sequence (peptide): RWGPNVQRLACIKKH

EZH2 peptide … (human) [4] = biological target: T3, EZH2 peptide … (human (by the printed UniProt entry)); test: as above
T3 sequence (peptide): KSEKGPVCWRKRVKS

JARID2 peptide … (human) [5] = biological target: T4, JARID2 peptide … (human (by the printed UniProt entry)); test: as above; remark: listed apart in the source
T4 sequence (peptide): AQDRLAKLQEAYCQY

EZH2 peptide … (human) [6] = biological target: T5, EZH2 peptide … (human (by the printed UniProt entry)); test: as above; remark: listed apart in the source
T5 sequence (peptide): VEDETVLHNIPYMGD

EED peptide … (human) [7] = biological target: T6, EED peptide … (human (by the printed UniProt entry)); test: as above; remark: listed apart in the source
T6 sequence (peptide): YVDADADENFYTCAW

JARID2 peptide … (human) [8] = biological target: T7, JARID2 peptide … (human (by the printed UniProt entry)); test: as above; remark: listed apart in the source
T7 sequence (peptide): LLSYDSLSPEEHRRL

JARID2 peptide … (human) [9] = biological target: T8, JARID2 peptide … (human (by the printed UniProt entry)); test: as above; remark: listed apart in the source
T8 sequence (peptide): AKLQEAYCQYLLSYD

EZH2 peptide … (human) [10] = biological target: T9, EZH2 peptide … (human (by the printed UniProt entry)); test: as above; remark: listed apart in the source
T9 sequence (peptide): SQDEADRRGKVYDKY

JARID2 peptide … (human) [11] = biological target: T10, JARID2 peptide … (human (by the printed UniProt entry)); test: as above; remark: listed apart in the source
T10 sequence (peptide): VQRLACIKKHLKSQG

EZH2 peptide … (human) [12] = biological target: T11, EZH2 peptide … (human (by the printed UniProt entry)); test: as above; remark: listed apart in the source
T11 sequence (peptide): VLHNIPYMGDEVLDQ

EED peptide … (human) [13] = biological target: T12, EED peptide … (human (by the printed UniProt entry)); test: as above; remark: listed apart in the source
T12 sequence (peptide): WKSKKCKYSFKCVNS

EED peptide … (human) [14] = biological target: T13, EED peptide … (human (by the printed UniProt entry)); test: as above; remark: listed apart in the source
T13 sequence (peptide): IFGGVEGHRDEVLSA

SUZ12 peptide … (human) [15] = biological target: T14, SUZ12 peptide … (human (by the printed UniProt entry)); test: as above
T14 sequence (peptide): LLKHLKLCHSRFIFN

EZH2 peptide … (human) [16] = biological target: T15, EZH2 peptide … (human (by the printed UniProt entry)); test: as above; remark: listed apart in the source
T15 sequence (peptide): DRRGKVYDKYMCSFL

JARID2 peptide … (human) [17] = biological target: T16, JARID2 peptide … (human (by the printed UniProt entry)); test: as above; remark: listed apart in the source
T16 sequence (peptide): GCELDLACFFRLINE

EZH2 peptide … (human) [18] = biological target: T17, EZH2 peptide … (human (by the printed UniProt entry)); test: as above; remark: listed apart in the source
T17 sequence (peptide): QTGEELFFDYRYSQA

SUZ12 peptide … (human) [19] = biological target: T18, SUZ12 peptide … (human (by the printed UniProt entry)); test: as above; remark: listed apart in the source
T18 sequence (peptide): CTLNCRKLYSLLKHL

JARID2 peptide … (human) [20] = biological target: T19, JARID2 peptide … (human (by the printed UniProt entry)); test: as above; remark: listed apart in the source
T19 sequence (peptide): LKSQGITMDELPLIG

JARID2 peptide … (human) [21] = biological target: T20, JARID2 peptide … (human (by the printed UniProt entry)); test: as above; remark: listed apart in the source
T20 sequence (peptide): AYCQYLLSYDSLSPE

EZH2 peptide … (human) [22] = biological target: T21, EZH2 peptide … (human (by the printed UniProt entry)); test: as above; remark: listed apart in the source
T21 sequence (peptide): DALKYVGIEREMEIP

EZH2 peptide … (human) [23] = biological target: T22, EZH2 peptide … (human (by the printed UniProt entry)); test: as above; remark: listed apart in the source
T22 sequence (peptide): PVCWRKRVKSEYMRL

EZH2 peptide … (human) [24] = biological target: T23, EZH2 peptide … (human (by the printed UniProt entry)); test: as above; remark: listed apart in the source
T23 sequence (peptide): TCGAADHWDSKNVSC

JARID2 peptide … (human) [25] = biological target: T24, JARID2 peptide … (human (by the printed UniProt entry)); test: as above; remark: listed apart in the source
T24 sequence (peptide): ITMDELPLIGGCELD

JARID2 peptide … (human) [26] = biological target: T25, JARID2 peptide … (human (by the printed UniProt entry)); test: as above; remark: listed apart in the source
T25 sequence (peptide): LPLIGGCELDLACFF

EZH2 peptide … (human) [27] = biological target: T26, EZH2 peptide … (human (by the printed UniProt entry)); test: as above; remark: listed apart in the source
T26 sequence (peptide): PDLCLTCGAADHWDS

EED peptide … (human) [28] = biological target: T27, EED peptide … (human (by the printed UniProt entry)); test: as above; remark: listed apart in the source
T27 sequence (peptide): DIHRNYVDCVRWLGD

EED peptide … (human) [29] = biological target: T28, EED peptide … (human (by the printed UniProt entry)); test: as above; remark: listed apart in the source
T28 sequence (peptide): WGKGKWKSKKCKYSF

SUZ12 peptide … (human) [30] = biological target: T29, SUZ12 peptide … (human (by the printed UniProt entry)); test: as above; remark: listed apart in the source
T29 sequence (peptide): EARDDLHCPWCTLNC

EED peptide … (human) [31] = biological target: T30, EED peptide … (human (by the printed UniProt entry)); test: as above; remark: listed apart in the source
T30 sequence (peptide): EGHRDEVLSADYDLL

EED peptide … (human) [32] = biological target: T31, EED peptide … (human (by the printed UniProt entry)); test: as above; remark: listed apart in the source
T31 sequence (peptide): PGRKSWGKGKWKSKK

EZH2 peptide … (human) [33] = biological target: T32, EZH2 peptide … (human (by the printed UniProt entry)); test: as above; remark: listed apart in the source
T32 sequence (peptide): KRVKSEYMRLRQLKR

EED peptide … (human) [34] = biological target: T33, EED peptide … (human (by the printed UniProt entry)); test: as above; remark: listed apart in the source
T33 sequence (peptide): LILSKSCENAIVCWK

EZH2 peptide … (human) [35] = biological target: T34, EZH2 peptide … (human (by the printed UniProt entry)); test: as above; remark: listed apart in the source
T34 sequence (peptide): FISEYCGEIISQDEA

EED peptide … (human) [36] = biological target: T35, EED peptide … (human (by the printed UniProt entry)); test: as above; remark: listed apart in the source
T35 sequence (peptide): DTLVAIFGGVEGHRD

EED peptide … (human) [37] = biological target: T36, EED peptide … (human (by the printed UniProt entry)); test: as above; remark: listed apart in the source
T36 sequence (peptide): NTPNAPGRKSWGKGK

SUZ12 peptide … (human) [38] = biological target: T37, SUZ12 peptide … (human (by the printed UniProt entry)); test: as above; remark: listed apart in the source
T37 sequence (peptide): FSDVNEGEKEVMKLW

EZH2 peptide … (human) [39] = biological target: T38, EZH2 peptide … (human (by the printed UniProt entry)); test: as above; remark: listed apart in the source
T38 sequence (peptide): LFFDYRYSQADALKY

SUZ12 peptide … (human) [40] = biological target: T39, SUZ12 peptide … (human (by the printed UniProt entry)); test: as above; remark: listed apart in the source
T39 sequence (peptide): TQIEEFSDVNEGEKE

EED peptide … (human) [41] = biological target: T40, EED peptide … (human (by the printed UniProt entry)); test: as above; remark: listed apart in the source
T40 sequence (peptide): LGRFDYSQCDIWYMR

EZH2 peptide … (human) [42] = biological target: T41, EZH2 peptide … (human (by the printed UniProt entry)); test: as above; remark: listed apart in the source
T41 sequence (peptide): RYSQADALKYVGIER

EED peptide … (human) [43] = biological target: T42, EED peptide … (human (by the printed UniProt entry)); test: as above; remark: listed apart in the source
T42 sequence (peptide): YSQCDIWYMRFSMDF

EZH2 peptide … (human) [44] = biological target: T43, EZH2 peptide … (human (by the printed UniProt entry)); test: as above; remark: listed apart in the source
T43 sequence (peptide): VQKNEFISEYCGEII

EZH2 peptide … (human) [45] = biological target: T44, EZH2 peptide … (human (by the printed UniProt entry)); test: as above; remark: listed apart in the source
T44 sequence (peptide): AKRAIQTGEELFFDY

EED peptide … (human) [46] = biological target: T45, EED peptide … (human (by the printed UniProt entry)); test: as above; remark: listed apart in the source
T45 sequence (peptide): DFSTRDIHRNYVDCV

Measured: binding

survivin (His-tagged, from pHIS8) (from UniProt O15392 1-142)
binds: [1]

survivin (from UniProt O15392 1-142)
not listed: [1]
binds: all other assays above
